Results published in the supplement of paper PMC7666118.
The other results are listed elsewhere or left out.

Chains of the proteins cited; added tags and fusions are not shown. Lines headed by an entry give the natural chain unless they say otherwise; changes in a name come on top.
UniProt Q8NDC0: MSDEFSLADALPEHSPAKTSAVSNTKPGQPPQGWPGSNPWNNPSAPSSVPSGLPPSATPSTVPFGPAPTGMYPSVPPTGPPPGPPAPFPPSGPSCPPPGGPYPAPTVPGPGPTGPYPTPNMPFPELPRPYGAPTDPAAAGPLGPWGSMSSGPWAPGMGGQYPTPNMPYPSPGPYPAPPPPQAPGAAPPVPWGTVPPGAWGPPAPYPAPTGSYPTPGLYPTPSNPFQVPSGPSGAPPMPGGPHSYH
UniProt Q9UK45: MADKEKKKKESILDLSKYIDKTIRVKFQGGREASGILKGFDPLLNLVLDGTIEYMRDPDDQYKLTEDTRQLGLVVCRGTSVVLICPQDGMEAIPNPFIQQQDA
UniProt P49641: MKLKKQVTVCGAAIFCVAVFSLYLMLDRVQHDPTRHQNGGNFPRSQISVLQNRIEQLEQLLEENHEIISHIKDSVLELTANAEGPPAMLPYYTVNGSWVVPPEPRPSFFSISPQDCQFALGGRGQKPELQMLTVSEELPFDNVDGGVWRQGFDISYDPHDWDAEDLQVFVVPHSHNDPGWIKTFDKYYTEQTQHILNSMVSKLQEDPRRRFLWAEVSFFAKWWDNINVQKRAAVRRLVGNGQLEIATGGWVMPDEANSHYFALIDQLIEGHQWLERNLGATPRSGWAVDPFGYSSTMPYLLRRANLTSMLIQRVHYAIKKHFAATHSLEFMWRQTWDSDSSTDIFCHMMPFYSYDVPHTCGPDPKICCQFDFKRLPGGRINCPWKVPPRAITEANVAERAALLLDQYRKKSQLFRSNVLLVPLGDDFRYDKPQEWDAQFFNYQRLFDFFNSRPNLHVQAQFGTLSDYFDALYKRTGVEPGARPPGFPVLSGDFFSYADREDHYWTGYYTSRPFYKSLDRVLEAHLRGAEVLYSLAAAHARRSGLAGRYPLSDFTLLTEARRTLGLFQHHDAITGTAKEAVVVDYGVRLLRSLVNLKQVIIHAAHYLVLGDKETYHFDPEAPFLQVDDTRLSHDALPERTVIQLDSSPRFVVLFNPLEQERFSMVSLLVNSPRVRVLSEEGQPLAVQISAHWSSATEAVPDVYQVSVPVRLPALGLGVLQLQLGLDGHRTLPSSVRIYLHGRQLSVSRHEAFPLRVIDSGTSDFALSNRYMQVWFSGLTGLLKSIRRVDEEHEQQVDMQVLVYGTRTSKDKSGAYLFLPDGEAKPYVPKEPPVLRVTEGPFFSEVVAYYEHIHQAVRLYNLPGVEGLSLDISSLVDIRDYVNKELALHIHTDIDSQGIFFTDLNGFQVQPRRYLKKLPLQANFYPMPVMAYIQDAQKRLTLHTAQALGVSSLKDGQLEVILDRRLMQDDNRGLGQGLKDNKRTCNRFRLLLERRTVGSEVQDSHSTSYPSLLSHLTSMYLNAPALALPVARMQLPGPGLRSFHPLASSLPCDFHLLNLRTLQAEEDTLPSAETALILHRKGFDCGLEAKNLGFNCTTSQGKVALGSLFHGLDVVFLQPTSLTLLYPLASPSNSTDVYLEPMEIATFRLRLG
UniProt O00214: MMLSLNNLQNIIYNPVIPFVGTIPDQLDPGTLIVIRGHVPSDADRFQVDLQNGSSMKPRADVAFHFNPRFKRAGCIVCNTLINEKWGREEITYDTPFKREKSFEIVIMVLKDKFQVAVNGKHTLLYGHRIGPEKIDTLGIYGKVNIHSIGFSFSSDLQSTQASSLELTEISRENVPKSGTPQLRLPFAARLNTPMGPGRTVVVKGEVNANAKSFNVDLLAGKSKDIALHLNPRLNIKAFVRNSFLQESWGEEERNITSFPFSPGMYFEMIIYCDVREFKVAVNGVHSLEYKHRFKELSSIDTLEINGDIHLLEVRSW
UniProt P10636, whole entry: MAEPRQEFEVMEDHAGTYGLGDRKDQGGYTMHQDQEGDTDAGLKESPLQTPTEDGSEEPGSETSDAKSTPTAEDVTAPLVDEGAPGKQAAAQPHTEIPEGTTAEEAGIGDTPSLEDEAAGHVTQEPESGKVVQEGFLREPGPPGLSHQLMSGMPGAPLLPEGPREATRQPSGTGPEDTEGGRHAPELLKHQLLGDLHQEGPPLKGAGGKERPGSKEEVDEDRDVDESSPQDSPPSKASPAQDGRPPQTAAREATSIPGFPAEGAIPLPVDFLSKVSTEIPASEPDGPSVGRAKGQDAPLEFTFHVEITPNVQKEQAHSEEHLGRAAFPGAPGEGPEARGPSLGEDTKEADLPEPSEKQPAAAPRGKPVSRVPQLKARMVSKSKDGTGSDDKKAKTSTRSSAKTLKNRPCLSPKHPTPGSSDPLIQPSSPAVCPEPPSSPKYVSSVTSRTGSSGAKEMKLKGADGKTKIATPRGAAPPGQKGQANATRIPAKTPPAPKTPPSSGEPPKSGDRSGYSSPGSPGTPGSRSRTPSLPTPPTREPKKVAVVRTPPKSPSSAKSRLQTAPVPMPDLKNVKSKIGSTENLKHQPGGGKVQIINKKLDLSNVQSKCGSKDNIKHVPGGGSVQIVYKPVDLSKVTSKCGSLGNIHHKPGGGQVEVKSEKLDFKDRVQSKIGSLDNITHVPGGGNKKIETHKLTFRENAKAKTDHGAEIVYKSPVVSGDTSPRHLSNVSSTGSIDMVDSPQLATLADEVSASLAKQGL
UniProt Q9BSK0: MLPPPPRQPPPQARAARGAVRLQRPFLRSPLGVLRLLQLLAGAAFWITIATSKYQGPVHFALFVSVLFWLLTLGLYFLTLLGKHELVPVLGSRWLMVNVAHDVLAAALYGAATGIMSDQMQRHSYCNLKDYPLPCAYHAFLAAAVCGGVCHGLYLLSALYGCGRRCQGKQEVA
UniProt Q96AG4: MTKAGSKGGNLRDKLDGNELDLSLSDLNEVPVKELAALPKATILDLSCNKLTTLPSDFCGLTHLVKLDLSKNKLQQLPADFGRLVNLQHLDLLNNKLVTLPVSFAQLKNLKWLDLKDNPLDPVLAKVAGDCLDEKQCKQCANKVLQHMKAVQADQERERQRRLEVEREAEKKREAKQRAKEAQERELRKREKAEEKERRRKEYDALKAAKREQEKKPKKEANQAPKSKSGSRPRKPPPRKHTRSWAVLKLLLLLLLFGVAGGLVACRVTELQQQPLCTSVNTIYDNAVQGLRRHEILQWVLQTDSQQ
UniProt Q9Y4Z0: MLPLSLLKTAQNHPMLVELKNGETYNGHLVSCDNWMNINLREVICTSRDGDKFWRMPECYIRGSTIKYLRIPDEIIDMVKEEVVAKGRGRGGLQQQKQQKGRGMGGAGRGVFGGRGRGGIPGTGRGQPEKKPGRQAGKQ
UniProt Q96PV6, whole entry: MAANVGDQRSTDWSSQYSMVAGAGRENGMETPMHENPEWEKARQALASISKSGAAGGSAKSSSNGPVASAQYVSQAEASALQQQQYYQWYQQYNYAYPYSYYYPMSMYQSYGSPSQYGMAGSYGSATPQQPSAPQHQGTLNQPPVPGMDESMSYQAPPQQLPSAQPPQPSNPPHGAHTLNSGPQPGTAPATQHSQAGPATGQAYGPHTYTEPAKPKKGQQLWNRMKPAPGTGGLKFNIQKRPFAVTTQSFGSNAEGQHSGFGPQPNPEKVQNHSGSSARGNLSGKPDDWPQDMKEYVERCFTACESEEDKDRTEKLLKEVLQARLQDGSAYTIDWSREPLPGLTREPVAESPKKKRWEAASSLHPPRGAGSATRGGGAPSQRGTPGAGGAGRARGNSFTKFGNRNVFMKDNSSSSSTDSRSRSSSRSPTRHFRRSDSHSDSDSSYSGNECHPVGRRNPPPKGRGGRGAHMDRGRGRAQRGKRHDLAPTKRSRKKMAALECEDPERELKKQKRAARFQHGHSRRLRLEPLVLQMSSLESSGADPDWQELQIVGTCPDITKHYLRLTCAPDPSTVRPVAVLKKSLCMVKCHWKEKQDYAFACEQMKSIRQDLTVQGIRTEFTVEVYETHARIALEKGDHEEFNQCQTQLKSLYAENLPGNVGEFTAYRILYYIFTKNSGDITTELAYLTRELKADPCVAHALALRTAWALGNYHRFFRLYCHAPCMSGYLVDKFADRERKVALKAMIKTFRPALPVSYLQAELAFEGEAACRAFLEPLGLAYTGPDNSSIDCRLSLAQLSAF
UniProt P01130: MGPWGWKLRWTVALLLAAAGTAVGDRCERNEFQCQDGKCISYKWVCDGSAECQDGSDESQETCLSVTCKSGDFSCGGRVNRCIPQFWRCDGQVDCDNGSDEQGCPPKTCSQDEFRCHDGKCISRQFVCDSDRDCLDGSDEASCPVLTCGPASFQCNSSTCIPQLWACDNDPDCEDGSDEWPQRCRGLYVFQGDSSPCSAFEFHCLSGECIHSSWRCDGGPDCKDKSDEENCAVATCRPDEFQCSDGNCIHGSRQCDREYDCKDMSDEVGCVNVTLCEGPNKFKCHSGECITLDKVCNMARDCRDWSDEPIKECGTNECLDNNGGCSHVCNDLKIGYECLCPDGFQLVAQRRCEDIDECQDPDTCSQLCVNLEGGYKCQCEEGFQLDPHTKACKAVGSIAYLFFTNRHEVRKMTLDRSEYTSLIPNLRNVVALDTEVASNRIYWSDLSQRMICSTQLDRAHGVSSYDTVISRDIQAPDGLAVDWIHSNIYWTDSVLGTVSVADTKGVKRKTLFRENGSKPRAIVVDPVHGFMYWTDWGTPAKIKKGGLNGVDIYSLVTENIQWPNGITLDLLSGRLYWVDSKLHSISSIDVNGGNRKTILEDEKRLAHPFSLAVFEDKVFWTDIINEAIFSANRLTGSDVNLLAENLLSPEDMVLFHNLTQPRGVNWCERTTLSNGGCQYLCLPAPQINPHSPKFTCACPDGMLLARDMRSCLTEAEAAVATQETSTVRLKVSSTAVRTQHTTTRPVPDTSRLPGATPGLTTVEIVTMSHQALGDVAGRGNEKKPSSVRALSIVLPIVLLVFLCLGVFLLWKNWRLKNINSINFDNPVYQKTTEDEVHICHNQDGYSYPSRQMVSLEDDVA
UniProt Q9NQ48: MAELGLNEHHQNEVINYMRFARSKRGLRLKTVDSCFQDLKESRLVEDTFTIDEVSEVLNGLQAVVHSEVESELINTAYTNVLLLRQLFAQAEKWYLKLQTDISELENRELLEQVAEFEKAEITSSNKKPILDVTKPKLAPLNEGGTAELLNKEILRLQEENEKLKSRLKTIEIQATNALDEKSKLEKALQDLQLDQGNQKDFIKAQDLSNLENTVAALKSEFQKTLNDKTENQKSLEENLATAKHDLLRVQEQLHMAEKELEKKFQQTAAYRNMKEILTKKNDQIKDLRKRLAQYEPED
UniProt Q15750: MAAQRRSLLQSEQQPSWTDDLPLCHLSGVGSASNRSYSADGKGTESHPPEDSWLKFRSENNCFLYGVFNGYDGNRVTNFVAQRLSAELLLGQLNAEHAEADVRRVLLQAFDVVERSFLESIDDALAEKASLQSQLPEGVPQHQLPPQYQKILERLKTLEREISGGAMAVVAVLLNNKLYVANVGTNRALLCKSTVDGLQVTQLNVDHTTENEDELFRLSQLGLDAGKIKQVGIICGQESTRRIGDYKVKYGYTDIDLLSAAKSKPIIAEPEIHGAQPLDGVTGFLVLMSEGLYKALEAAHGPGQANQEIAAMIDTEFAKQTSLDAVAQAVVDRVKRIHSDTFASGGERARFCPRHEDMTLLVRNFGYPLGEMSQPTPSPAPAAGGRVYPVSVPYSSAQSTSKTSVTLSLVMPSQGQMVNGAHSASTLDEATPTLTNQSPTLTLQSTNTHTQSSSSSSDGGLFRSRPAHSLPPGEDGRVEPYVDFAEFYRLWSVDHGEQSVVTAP
UniProt Q3KQU3: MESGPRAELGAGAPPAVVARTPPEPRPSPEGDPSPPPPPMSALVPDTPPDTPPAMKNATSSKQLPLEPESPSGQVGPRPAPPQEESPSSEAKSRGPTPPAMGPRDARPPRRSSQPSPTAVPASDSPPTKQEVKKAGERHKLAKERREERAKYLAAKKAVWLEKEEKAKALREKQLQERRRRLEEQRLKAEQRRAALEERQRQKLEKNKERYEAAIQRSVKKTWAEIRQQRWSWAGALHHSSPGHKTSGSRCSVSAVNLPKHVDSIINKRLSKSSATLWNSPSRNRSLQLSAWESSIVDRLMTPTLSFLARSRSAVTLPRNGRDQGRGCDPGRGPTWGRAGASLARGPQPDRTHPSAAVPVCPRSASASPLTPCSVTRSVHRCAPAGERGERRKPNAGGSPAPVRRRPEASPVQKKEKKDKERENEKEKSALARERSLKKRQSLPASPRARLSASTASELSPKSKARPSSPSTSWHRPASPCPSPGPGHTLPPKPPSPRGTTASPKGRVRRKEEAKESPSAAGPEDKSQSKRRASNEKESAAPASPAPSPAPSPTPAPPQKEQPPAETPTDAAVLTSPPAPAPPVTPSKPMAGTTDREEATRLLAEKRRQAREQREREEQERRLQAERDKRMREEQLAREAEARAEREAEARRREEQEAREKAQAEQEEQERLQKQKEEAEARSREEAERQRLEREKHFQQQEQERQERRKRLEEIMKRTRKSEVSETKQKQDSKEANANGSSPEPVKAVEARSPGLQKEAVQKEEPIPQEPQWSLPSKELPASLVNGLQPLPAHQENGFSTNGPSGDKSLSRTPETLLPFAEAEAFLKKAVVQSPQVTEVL

compound: COc1ccc(Cn2ccc3cc(C)c(C(=O)NO)cc32)cc1; assay: dose-dependent thermal stabilisation call (2D-TPP, DLPTP, 10% FDR) (binary (1 = stabilised)); higher = stabilised by the compound; conditions: system: HL-60 intact cells; concentration range 0.04-10 µM
Protocol: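 2D thermal proteome profiling in intact HL-60 cells treated with BRD-3811 (0, 0.04, 0.29, 2, 10 uM) for 90 min at 37 C, then heated 3 min at one of 12 temperatures (42-63.9 C). Soluble protein was quantified by TMT10 MS. The value is the DLPTP call of the paper: dose-dependent thermal stabilisation over all temperatures at 10% FDR (F-test of a dose-response against a flat model); one experiment, one call per tested protein.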

Target	dose-dependent thermal stabilisation call
M6PR (UniProt P20645)	inactive: 0
MAPK1IP1L (UniProt Q8NDC0)	inactive: 0
LSM7 (UniProt Q9UK45)	inactive: 0
MAN2A2 (UniProt P49641)	inactive: 0
LGALS8 (UniProt O00214)	inactive: 0
MAPT (UniProt P10636)	inactive: 0
MBTPS1 (UniProt Q14703)	inactive: 0
LOC100128155	inactive: 0
MARVELD1 (UniProt Q9BSK0)	inactive: 0
LRPPRC (UniProt P42704)	inactive: 0
MAN2B2 (UniProt Q9Y2E5)	inactive: 0
MARS (UniProt P56192)	inactive: 0
LMBR1 (UniProt Q8WVP7)	inactive: 0
LRRC59 (UniProt Q96AG4)	inactive: 0
LPP (UniProt Q93052)	inactive: 0
LYPLA2 (UniProt O95372)	inactive: 0
LSM4 (UniProt Q9Y4Z0)	inactive: 0
LENG8 (UniProt Q96PV6)	inactive: 0

Retrieved one by one from the list above, 2 records:
Target	dose-dependent thermal stabilisation call
LSM7 (UniProt Q9UK45)	inactive: 0
LENG8 (UniProt Q96PV6)	inactive: 0

(listing goes on)

Target	dose-dependent thermal stabilisation call
LANCL2 (UniProt Q9NS86)	inactive: 0
LRRC57 (UniProt Q8N9N7)	inactive: 0
LOC728658	inactive: 0
MCM3 (UniProt P25205)	inactive: 0
LOC26010	inactive: 0
MARCH6 (UniProt O60337)	inactive: 0
LOH12CR1 (UniProt Q969J3)	active: 1
LDLR (UniProt P01130)	inactive: 0
LZTFL1 (UniProt Q9NQ48)	inactive: 0
MAN1A2 (UniProt O60476)	inactive: 0
LOC100131572	inactive: 0
MAP3K7IP1 (UniProt Q15750)	inactive: 0
MAP7D1 (UniProt Q3KQU3)	inactive: 0
KRR1 (UniProt Q13601)	inactive: 0
MAP4K1 (UniProt Q92918)	inactive: 0
MAP2K1 (UniProt Q02750)	inactive: 0
LRRC41 (UniProt Q15345)	inactive: 0
MACF1	inactive: 0
